The target in this assay is collagen I (rat tail, Collaborative Biomedical Products) (rat) (UniProt P02454+P02466). The experiment in a line: ELISA; solid-phase assay: 0.25 μg of collagens I, IV, XIII in 50 μl TBS coated on microtiter plates; GST-I domains soluble, diluted in TBS with 30 μg/ml BSA, 2 mM MgCl2, 0.05% Tween-20; room temperature; detected with anti-GST antibody; both purified. (In general: In an ELISA, binding on a coated surface is turned into a signal by an enzyme label.)

Protein sequences, listed by entry. Tags and fused reporters are not part of them. Lines headed by an entry give the natural chain unless they say otherwise; changes in a name come on top. Residues count along the entry.
UniProt P02454: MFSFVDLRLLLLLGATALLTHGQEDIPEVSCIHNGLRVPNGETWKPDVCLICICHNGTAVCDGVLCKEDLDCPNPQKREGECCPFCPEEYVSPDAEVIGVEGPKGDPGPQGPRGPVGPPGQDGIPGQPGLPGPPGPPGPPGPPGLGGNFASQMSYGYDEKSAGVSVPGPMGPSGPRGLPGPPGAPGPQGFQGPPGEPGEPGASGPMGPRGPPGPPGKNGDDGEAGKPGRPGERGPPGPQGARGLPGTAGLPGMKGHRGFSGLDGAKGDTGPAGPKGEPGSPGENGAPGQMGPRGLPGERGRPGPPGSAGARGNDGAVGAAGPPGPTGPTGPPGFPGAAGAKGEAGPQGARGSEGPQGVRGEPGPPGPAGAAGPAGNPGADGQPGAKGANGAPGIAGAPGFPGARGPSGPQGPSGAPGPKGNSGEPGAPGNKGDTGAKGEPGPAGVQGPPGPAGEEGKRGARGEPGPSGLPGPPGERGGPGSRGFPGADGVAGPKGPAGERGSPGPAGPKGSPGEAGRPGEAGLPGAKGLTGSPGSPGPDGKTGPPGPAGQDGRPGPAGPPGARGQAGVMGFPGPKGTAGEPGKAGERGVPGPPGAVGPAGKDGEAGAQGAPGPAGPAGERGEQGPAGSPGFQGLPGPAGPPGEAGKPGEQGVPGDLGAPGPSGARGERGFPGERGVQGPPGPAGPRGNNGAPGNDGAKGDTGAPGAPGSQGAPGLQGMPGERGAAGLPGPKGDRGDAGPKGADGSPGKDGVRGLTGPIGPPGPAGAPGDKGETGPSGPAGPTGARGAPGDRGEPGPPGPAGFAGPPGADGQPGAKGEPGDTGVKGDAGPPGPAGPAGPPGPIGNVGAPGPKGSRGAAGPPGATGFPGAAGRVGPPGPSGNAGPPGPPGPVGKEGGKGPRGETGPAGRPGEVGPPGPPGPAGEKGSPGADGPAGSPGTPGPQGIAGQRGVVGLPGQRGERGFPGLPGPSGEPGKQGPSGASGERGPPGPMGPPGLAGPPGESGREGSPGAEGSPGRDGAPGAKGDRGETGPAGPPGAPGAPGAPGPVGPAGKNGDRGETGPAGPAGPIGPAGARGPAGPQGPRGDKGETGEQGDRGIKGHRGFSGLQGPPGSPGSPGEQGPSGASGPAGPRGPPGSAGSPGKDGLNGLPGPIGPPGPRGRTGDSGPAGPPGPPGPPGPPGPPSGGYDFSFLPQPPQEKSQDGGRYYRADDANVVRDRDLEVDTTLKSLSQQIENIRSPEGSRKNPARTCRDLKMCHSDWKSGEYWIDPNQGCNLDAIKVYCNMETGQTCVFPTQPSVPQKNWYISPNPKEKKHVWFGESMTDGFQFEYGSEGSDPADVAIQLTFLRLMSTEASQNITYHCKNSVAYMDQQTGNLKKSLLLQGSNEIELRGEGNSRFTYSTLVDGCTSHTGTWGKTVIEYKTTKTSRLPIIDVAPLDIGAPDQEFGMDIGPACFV
UniProt P02466: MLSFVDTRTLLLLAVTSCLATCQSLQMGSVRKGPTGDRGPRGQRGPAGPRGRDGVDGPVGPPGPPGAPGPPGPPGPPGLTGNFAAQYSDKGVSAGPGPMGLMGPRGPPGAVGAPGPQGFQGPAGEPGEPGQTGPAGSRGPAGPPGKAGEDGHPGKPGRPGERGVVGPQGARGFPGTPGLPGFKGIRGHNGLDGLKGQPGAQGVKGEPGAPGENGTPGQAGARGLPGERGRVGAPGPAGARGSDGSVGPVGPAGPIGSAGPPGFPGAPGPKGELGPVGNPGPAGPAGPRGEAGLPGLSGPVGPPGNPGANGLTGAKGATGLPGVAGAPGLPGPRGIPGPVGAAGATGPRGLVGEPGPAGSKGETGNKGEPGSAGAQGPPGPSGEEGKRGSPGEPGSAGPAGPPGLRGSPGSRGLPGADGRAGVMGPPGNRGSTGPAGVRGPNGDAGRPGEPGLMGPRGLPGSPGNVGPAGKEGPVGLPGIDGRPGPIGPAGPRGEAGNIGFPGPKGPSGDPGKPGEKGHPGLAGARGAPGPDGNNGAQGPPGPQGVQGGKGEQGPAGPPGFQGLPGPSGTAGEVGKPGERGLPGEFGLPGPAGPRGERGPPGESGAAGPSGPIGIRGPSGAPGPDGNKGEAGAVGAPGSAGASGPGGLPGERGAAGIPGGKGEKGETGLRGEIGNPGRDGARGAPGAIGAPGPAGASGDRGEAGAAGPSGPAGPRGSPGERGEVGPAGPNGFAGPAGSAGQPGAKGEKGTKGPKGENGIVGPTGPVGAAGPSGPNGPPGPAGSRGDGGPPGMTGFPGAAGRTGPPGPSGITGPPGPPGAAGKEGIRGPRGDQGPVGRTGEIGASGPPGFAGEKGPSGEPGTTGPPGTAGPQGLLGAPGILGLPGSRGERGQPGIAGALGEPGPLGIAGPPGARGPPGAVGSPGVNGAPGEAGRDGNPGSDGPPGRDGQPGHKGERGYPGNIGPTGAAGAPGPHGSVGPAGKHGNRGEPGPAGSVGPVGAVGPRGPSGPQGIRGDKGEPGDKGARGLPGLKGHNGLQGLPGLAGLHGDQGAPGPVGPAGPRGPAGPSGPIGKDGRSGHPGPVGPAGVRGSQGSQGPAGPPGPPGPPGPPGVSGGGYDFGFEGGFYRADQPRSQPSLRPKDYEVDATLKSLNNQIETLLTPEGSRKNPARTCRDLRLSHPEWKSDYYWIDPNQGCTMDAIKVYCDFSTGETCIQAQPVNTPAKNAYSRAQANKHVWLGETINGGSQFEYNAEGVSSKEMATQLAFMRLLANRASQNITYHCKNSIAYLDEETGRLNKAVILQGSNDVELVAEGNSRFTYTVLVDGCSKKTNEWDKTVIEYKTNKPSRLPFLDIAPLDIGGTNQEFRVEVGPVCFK
UniProt P17301, residues 172-355: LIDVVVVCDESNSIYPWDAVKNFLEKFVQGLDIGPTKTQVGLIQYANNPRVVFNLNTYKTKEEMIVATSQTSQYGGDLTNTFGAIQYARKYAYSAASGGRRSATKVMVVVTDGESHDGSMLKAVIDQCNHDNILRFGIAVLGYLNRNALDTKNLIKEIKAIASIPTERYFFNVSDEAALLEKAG

1 substance from paper PMC7960628 can be followed below.

No constants are given. Whether binding was seen depends on the method and setting. Some results given as binding are weak or reduced against the parent protein; the word gives no strength.

On to “GST-α2I fusion protein (recombinant I domain of human integrin α2) (from UniProt P17301 172-355) (domain or fragment)”, for which the binding result is “binds”.
